Two molecules from paper PMC11674800, “Second-Generation Antipsychotics Induce Metabolic Disruption in Adipose Tissue-Derived Mesenchymal Stem Cells Through an aPKC-Dependent Pathway” (Cells, 2024) can be followed below.

The structures appear in SMILES notation. Where two headings read alike, the source gives them in different places.

The test system of the test is ADSCs. The experiment in a line: cells. Conditions: Homo sapiens, 72 h.
Setting [1] is: read-out: IC50 (viability), ADSC#1, Figure 1a inset.
Where [2] appears, read: read-out: IC50 (viability), ADSC#2, Figure 1a inset.
[3] abbreviates: read-out: IC50 (viability), ADSC#3, Figure 1a inset.
[4] abbreviates: read-out: IC50 (viability), ADSC#4, Figure 1a inset.
Where [5] appears, read: read-out: IC50 (viability), ADSC#5, Figure 1a inset.

In the case of `CN1CCN(C2=Nc3cc(Cl)ccc3Nc3ccccc32)CC1` [clozapine], the IC50 is, setting by setting: (read-out: IC50 (cell viability), 72 h, most sensitive cell line) 37.8 µM; under setting [1], 67 µM; under setting [2], 100 µM; under setting [3], 37.7 µM; under setting [4], 63.8 µM; under setting [5], 41.9 µM.

Consider `Cc1cc2c(s1)Nc1ccccc1N=C2N1CCN(C)CC1` [olanzapine], for which the IC50 under setting [1] is 170 µM; the IC50 under setting [2] was determined as 190 µM; the IC50 under setting [3] came out at 116 µM; the IC50 under setting [4] was above 160 µM; the IC50 under setting [5] is 96.7 µM; the IC50 (read-out: concentration reducing cell viability by 50%, 72 h, all tested cell lines) was above 95 µM.
